# Percent effect of library compounds

Sequences of proteins named here, by UniProt entry; tags and fusion partners are left off.
UniProt P9WNZ1, whole entry: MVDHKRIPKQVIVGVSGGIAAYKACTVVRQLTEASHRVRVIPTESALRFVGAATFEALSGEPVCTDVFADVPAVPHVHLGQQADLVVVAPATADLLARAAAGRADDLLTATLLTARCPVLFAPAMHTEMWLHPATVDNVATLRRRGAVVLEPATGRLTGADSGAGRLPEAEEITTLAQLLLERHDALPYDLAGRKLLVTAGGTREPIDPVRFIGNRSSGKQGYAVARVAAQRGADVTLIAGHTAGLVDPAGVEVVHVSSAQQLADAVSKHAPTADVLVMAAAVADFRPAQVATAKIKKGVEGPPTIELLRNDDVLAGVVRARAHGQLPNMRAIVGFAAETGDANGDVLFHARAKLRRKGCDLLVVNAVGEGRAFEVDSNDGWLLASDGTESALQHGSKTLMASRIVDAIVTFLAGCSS
UniProt P9WFT3, whole entry: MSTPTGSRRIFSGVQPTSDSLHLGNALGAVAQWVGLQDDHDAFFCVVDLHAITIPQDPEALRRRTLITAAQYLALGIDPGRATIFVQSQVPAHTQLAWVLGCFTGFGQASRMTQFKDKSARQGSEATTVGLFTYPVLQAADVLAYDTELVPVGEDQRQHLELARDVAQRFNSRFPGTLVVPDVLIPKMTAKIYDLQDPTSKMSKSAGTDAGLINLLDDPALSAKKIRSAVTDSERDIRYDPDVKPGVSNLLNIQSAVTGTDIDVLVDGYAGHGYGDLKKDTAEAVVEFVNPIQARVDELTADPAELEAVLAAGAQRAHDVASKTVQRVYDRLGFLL

Source: ChEMBL document CHEMBL3988442, “University of Dundee, Small-Polar-MMV Screening Library” (2021).

The filed quantity is “Percent Effect” (%). The controls that fix the scale are not given in the record; negative values are as filed. This is an unselected part of the compounds tested. A dash means the value is not listed here; it may have been measured.

CoaBC: 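Enzyme assay of CoaBC with a phosphate dye (Biomol Green) read at 650 nm. Target: Coenzyme A biosynthesis protein CoaBC, Mycobacterium tuberculosis (UniProt P9WNZ1). Concentration: 30 µM. Direction is inferred from only a few compounds that gave an IC50; most scored high, so higher reads as stronger inhibition. Most strong results did not repeat in a second test. Size under these conditions: about 67,000 compounds, about 40 of them at 50% or above in at least one test.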
MtTrpRS: 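Enzyme assay of tryptophanyl-tRNA synthetase; the read-out is not stated. Target: Tryptophan-tRNA ligase, Mycobacterium tuberculosis (UniProt P9WFT3). Concentration: 10 µM. Direction is not recorded; retested compounds ran higher, which suggests that high means inhibition. Size under these conditions: about 65,000 compounds, about 64 of them at 50% or above in at least one test.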

structure	CoaBC	MtTrpRS
O=C(CSC1CCCC1)N1CCN(c2ccc(-n3cncn3)nn2)CC1	5.708	0.5319
CC(=O)N1CC[C@@H]2O[C@@H](COCC(=O)N3CCCC3)CC[C@@H]21	-4.069	-3.754
CCc1nc(NCC2CCCN(C(=O)C3CC3)C2)c2cnn(C)c2n1 (centres unmarked)	2.552	3.376
NS(=O)(=O)c1cnn(-c2ccc(NC(=O)C3CCCCC3)cn2)c1	-1.966	-1.568
O=C(Cc1nc(-c2ccncc2)n[nH]1)N1CCOCC1	0.8783	0.4591
O=C(Nc1nnc(C2CC2)s1)NC1CCOc2ccccc21 (centres unmarked)	1.818	-0.1347
CCc1ccc(CN2CCC(=O)N(CC3CC3)C(C(C)C)C2)nc1 (centres unmarked)	0.9756	-3.226
CCOCC1CN(C(=O)CS(C)(=O)=O)Cc2cnn(C)c21 (centres unmarked)	4.188	4.512
CCOc1ccccc1-c1cc(N)[nH]n1	-2.968	-2.891
CC(CO)CN(Cc1ccccc1)C(=O)c1csc(CN(C)C)n1 (centres unmarked)	8.442	2.576
CS(=O)(=O)NCc1cc(=O)n2c(n1)CN(CC1CC1)CCC2	0.1238	-
NC(=O)CN1CCOCC(Cc2ccccc2)C1 (centres unmarked)	1.611	-
COCCNC(=O)Cn1cc(NC(=O)c2cc(Cl)c(Cl)n2C)cn1	2.662	-1.613
COc1cccc(F)c1C(=O)N1C[C@@H](CN(C)CCO)[C@@H](CO)C1	-0.9091	-3.728
CN(C)c1nccc(N2CCO[C@H]3CN(Cc4nccn4C)C[C@H]32)n1	-2.746	0.2945
COCC(C)(C#N)NC(=O)c1cn(-c2cccc(Cl)c2F)nn1 (centres unmarked)	0.1266	1.763
Cc1cc(=O)n(CC(=O)NCCC(C)C)c(-c2cccc(Cl)c2)n1	5	6.545
CCc1[nH]c2c(CNc3nc(C)cc(NC)n3)cc(C)cc2c1C	7.195	-2.252
COCCOc1ccccc1C(=O)N1CCCCC1c1nccs1 (centres unmarked)	2.491	3.678
Cc1cscc1C(=O)NC1CC(=O)N(C(C)C)C1=O (centres unmarked)	4.888	-2.478
CCCN1CCCn2c(nc(CNC(=O)N3CCCC3)cc2=O)C1	14.58	-0.9168
N#Cc1cc(F)ccc1Cn1cnc(C2CCC2)cc1=O	-4.453	0.8909
Cn1ccnc1CN1CCCC(Cc2ccnc3ccncc23)CC1 (centres unmarked)	4.843	-
Cc1nc(C(C)Nc2nc3c(s2)c(C)nn3C)n[nH]1 (centres unmarked)	0.7407	9.867
Cc1nn(C)cc1CN(Cc1ccccn1)Cc1ccccc1Cl	-7.126	-1.427
CCn1c2c(ccc1=O)CC(NCc1cnn(C)c1)CC2 (centres unmarked)	1.609	-
O=C(NS(=O)(=O)c1cccnc1)C1CC(c2ccccc2)=NO1 (centres unmarked)	-33.07	54.13
O=C(c1c[nH]cn1)N1CCC(F)(F)C2(CCN(c3cccc(F)c3)C2)C1 (centres unmarked)	8.211	2.311
Cc1ccc(-c2[nH]c3ccccc3c2C(=O)O)c(C)c1	-9.211	-6.309
Cc1c(C(=O)NC2=NCCS2)cnn1-c1ccc(Cl)cc1	2.058	-0.311
CC(=O)N(Cc1ccoc1)C1CCCCC1	2.593	-0.9372
CC1(C)CN(CC(O)C(C)(C)C)C(=O)CN(C(=O)c2ccccc2)C1 (centres unmarked)	-4.049	-
CC(C)NC(=O)c1noc2c1CN(Cc1cnn(C)c1)CC2	-0.6061	-
Cc1cc(C)n(CC(=O)N2CCC(c3nc(C)no3)CC2)n1	-2.954	2.275
c1cc(-c2cnccn2)cc(-c2ccn(CCN3CCCC3)n2)c1	-23.67	-1.78
O=C(Cc1cccc(O)c1)N1CCCC(O)(CN2CCOCC2)CC1 (centres unmarked)	5.361	1.952
CNC(=O)CCC(=O)N1CCOC(c2ccc3cc(OC)ccc3c2)C1 (centres unmarked)	12.84	-1.649
O=C(NCCCOCC1CC1)Nc1ccc(-n2cncn2)c(F)c1	0	-1.04
CC(=O)c1ccc(C(=O)N(C)Cc2nc(-c3ccccn3)no2)s1	15.47	7.743
Cc1cnn(CCCNC2Cc3ccccc3C2)c1	-7.645	0.5201
COc1cc(CNC(=O)Nc2nnc(C(F)(F)F)s2)ccc1O	2.484	2.808
O=C(NC1=NCCS1)C1CSCN1C(=O)C1CCCC1 (centres unmarked)	-5.992	-1.04
CCN(Cc1cccc2c1OCO2)C(=O)NCc1ccccn1	-12.6	6.985
CN(Cc1cnccn1)CC1CCOc2ccccc2C1 (centres unmarked)	7.205	1.817
Cc1noc(C)c1CN1CCC(c2nc3cc(Cl)ccc3o2)CC1	5.741	1.755
COc1ccccc1OCC(=O)Nc1ncccc1OC(F)F	-3.376	-0.7583
CS(=O)(=O)NCc1ncn2c1CN(Cc1cccs1)CCC2	8.316	2.521
Cc1cnn(CCNCC(O)COc2ccc(F)cc2)c1 (centres unmarked)	2.1	-0.8023
C=C(C)CNC(=O)C1CCC(=O)N(C2CCCC2)C1 (centres unmarked)	1.411	6.458
Cc1nc[nH]c1CN1CCC(C2CCN(CCc3ccccc3)C2)CC1 (centres unmarked)	4.785	0.08223
COC(=O)CS(=O)(=O)CCC(=O)N1CCCC1c1ccsc1 (centres unmarked)	9.283	1.706
CCN(CC1CCOC1)C(=O)c1ccccc1NS(=O)(=O)CC (centres unmarked)	2.504	1.657
CCCN(C)c1ncc2c(n1)N(C)CCN(CC1CC1)C2=O	1.807	-
CC(C)NC(=O)N1CC[C@H]2N(C)CC[C@@]2(C(=O)Nc2cccnc2)CC1	1.98	-
CN(Cc1ccsc1)C(=O)CN1CCCC(Cn2cncn2)C1 (centres unmarked)	1.673	0.5801
CCn1ncnc1C1CC(=O)NCc2nc(N)sc21 (centres unmarked)	3.137	1.683
Cc1cc(CN2CC3(CCN(C(=O)C4CC4)CC3)CC2C(=O)O)oc1C (centres unmarked)	3.909	-1.71
CCn1cc(C(=O)NCc2ccc3c(c2)OCO3)c(C)n1	8.645	-2.168
OCCOc1cc(F)ccc1NCc1nc(-c2cccs2)no1	1.737	1.586
Cc1nc(C)c(C(=O)N2CCCC2(C)C(=O)NC2CCCC2)s1 (centres unmarked)	-5.463	2.649
O=C(c1cscn1)N1CCc2ncc(CN3CCCC3)n2CC1	1.724	-8.095
O=C(NCCn1ccnc1)c1csc(Br)c1	-	9.185
CC(C)(C(N)=O)N1CCN(C(=O)c2ccn(-c3cccc(Cl)c3)n2)CC1	6.364	0.7787
CCN1CCC(c2nc3ccc(NC(C)C)cn3n2)CC1	-33.33	-0.5629
Cc1nnc(CN2CCN(Cc3nccn3C)CC2)n1C	1.603	-2.381
CCN1CCN(c2ncc3c(=O)n(Cc4ccco4)ccc3n2)CC1	1.04	2.656
CS(=O)(=O)NC[C@]12COC[C@H]1CN(C(=O)C1CCSCC1)C2	1.481	-
CSc1nccc(-c2cccc(-c3ccn(CC4COCCO4)n3)c2)n1 (centres unmarked)	3.171	-8.659
CN(C)C(=O)N1CCC2(CCCN(c3ncccn3)C2)C1 (centres unmarked)	-9.877	-11.34
CO[C@@H]1CCC[C@@H](NC(=O)C(C)(C)c2cccc(F)c2)[C@H]1O	0.7398	-5.937
CCC[C@@H]1CN(Cc2cc(OC)c3c(c2)OCO3)C[C@H]1C(=O)O	6.198	-2.034
CCOc1ccc(C(=O)N2CCCCC2Cn2nc(C)cc2C)cn1 (centres unmarked)	0.3727	20.59
CCc1nc(C)c(C(=O)N[C@@H]2c3ccccc3C[C@@H]2O)o1	-4.084	-0.6415
O=C(Cc1ccc2c(c1)CCO2)N1CCN(c2ccncc2)CC1	0.7653	-4.545

Some entries from above, unchanged:

NS(=O)(=O)c1cnn(-c2ccc(NC(=O)C3CCCCC3)cn2)c1 gave CoaBC: -1.966%; MtTrpRS: -1.568%.
Cc1cscc1C(=O)NC1CC(=O)N(C(C)C)C1=O (centres unmarked) gave CoaBC: 4.888%; MtTrpRS: -2.478%.
CS(=O)(=O)NCc1cc(=O)n2c(n1)CN(CC1CC1)CCC2 gave CoaBC: 0.1238%.
N#Cc1cc(F)ccc1Cn1cnc(C2CCC2)cc1=O gave CoaBC: -4.453%; MtTrpRS: 0.8909%.
Cc1nnc(CN2CCN(Cc3nccn3C)CC2)n1C gave CoaBC: 1.603%; MtTrpRS: -2.381%.
Cc1noc(C)c1CN1CCC(c2nc3cc(Cl)ccc3o2)CC1 gave CoaBC: 5.741%; MtTrpRS: 1.755%.
Cc1nc(C)c(C(=O)N2CCCC2(C)C(=O)NC2CCCC2)s1 (centres unmarked) gave CoaBC: -5.463%; MtTrpRS: 2.649%.
COCCNC(=O)Cn1cc(NC(=O)c2cc(Cl)c(Cl)n2C)cn1 gave CoaBC: 2.662%; MtTrpRS: -1.613%.
CC(C)(C(N)=O)N1CCN(C(=O)c2ccn(-c3cccc(Cl)c3)n2)CC1 gave CoaBC: 6.364%; MtTrpRS: 0.7787%.